Results on 54 sequences are retold here after PMC7819943, “Rice protein-binding microarrays: a tool to detect cis-acting elements near promoter regions in rice”.

The other results are listed elsewhere or left out.

For the assay, the target named is T1, OsSMF1 (Oryza sativa, UniProt Q6ZLB0 1-436).
T1 sequence: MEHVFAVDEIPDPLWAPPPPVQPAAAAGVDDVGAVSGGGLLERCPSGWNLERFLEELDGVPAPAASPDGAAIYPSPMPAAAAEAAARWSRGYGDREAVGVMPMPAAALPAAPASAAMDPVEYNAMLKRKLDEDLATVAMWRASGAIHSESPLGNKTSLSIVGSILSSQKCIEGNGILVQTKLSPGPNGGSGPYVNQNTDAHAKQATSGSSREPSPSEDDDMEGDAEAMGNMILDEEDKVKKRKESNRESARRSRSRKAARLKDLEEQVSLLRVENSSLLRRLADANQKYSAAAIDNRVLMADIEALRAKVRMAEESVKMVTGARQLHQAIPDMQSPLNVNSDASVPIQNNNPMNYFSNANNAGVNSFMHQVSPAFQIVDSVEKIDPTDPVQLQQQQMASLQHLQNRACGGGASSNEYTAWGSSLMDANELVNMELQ
Put plainly: protein-binding microarray (RPBM); PBS, 2% BSA, 51.3 ng/ul salmon testes DNA, 50 uM zinc acetate, 200 nM TF, 25 C, 1 h; high values mean tight binding. As to conditions: protein: recombinant; tags: N-terminal polyhistidine and DsRed monomer fusion (pET32a); chain copies: 2; label: CyDye5-dUTP incorporated in the synthesized complementary strand; 3' TTTTT single-stranded linker to array surface; dsDNA, one strand shown. Summed up:
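The binding signal is fluorescence intensity per array feature (arbitrary units). Readings came from an Axon 4000B scanner after a washed, 2% BSA-blocked, double-stranded custom Agilent array had been incubated for 1 h at 25 °C with 200 nM protein and 50 µM zinc acetate. The protein was a Ni–NTA-purified transcription factor fused N-terminally to polyhistidine and DsRed, expressed in E. coli BL21-CodonPlus.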
“AGGTTGATTAGAAAAGGATGACCTGACTAGCACCCTCATTCGGAGTCACCTAGTGCAG”: the binding signal was 4700 fluorescence intensity (a.u.).

Regarding “CTGCCACGCGGCCACGGCGGCGGCGGTCTCCAGGTGGAAGCGGAGTCACCTAGTGCAG”, the binding signal is 4050 fluorescence intensity (a.u.).

“AGATAGCTAAGCTAAGCTAAGCTAGCCTCACTCCATGCTCCGGAGTCACCTAGTGCAG”: the binding signal is 23000 fluorescence intensity (a.u.).

“GGCGGCACAGGTCGCCGTCGTCGCCACCGACGCGGCGTCGCGGAGTCACCTAGTGCAG”: the binding signal was 3730 fluorescence intensity (a.u.).

For the sequence “GCTGCATACGCAGGTGGTGTGATGACACGCAAACATCATGCGGAGTCACCTAGTGCAG”, the binding signal was 4740 fluorescence intensity (a.u.).

On to “AAACGATACTGTCTGGTATCCCGATCCTGACAACCTTGTCCGGAGTCACCTAGTGCAG”, for which the binding signal is 3180 fluorescence intensity (a.u.).

On to “CTGTGATTCGGCTGTTCCCGCGTCATGTATATATACGCCACGGAGTCACCTAGTGCAG”, for which the binding signal is 6220 fluorescence intensity (a.u.).

On to “AATACTTCCAGCGACCTAAACGCGGATCGGCTCCTTCGAGCGGAGTCACCTAGTGCAG”, for which the binding signal was 25600 fluorescence intensity (a.u.).

Turning to “AATCATCACATCATCACCGTCATCTTCTCTAGCATAGCAACGGAGTCACCTAGTGCAG”, the binding signal is 4630 fluorescence intensity (a.u.).

As to “GATGGAAGACTGACTATGCATTGCGCCACAGAAGTCATGCCGGAGTCACCTAGTGCAG”, the binding signal is 3850 fluorescence intensity (a.u.).

For the sequence “AGCCGCCAAAATTAGTACACGCAAGCTTCGATAACGTTTTCGGAGTCACCTAGTGCAG”, the binding signal is 5480 fluorescence intensity (a.u.).

Regarding “GCTATCGCGCGCGTGGAGTGCGACGTGCATGCGCATCACCCGGAGTCACCTAGTGCAG”, the binding signal was 3150 fluorescence intensity (a.u.).

In the case of “ATGCGATTGATGATGTGGCAAATGCATCTCTAATGAATAACGGAGTCACCTAGTGCAG”, the binding signal is 10100 fluorescence intensity (a.u.).

Turning to “CCATCTCGCTCGCTCACTCATGTCACTCGTCAGCCACTTCCGGAGTCACCTAGTGCAG”, the binding signal was 4150 fluorescence intensity (a.u.).

Consider “GGCCCAGCTAAGCTAGCGCCTATTAGGGCTTGCCCCGGCTCGGAGTCACCTAGTGCAG”, for which the binding signal is 31100 fluorescence intensity (a.u.).

For “CGGCGGTTGCATCCGTGCCCATGACTCCACCGACGCTCCCCGGAGTCACCTAGTGCAG”, the binding signal was 4050 fluorescence intensity (a.u.).

As to “GATAAAGGTCTCTATTTGCATGACATATATCGTTACTATACGGAGTCACCTAGTGCAG”, the binding signal was 3570 fluorescence intensity (a.u.).

“AACATATTGCTTAGCGATTTGGAATGCGTGCGTATCAAAACGGAGTCACCTAGTGCAG”: the binding signal was 3590 fluorescence intensity (a.u.).

As for “CCGCCGCCGCCGCCGCATAAGCCCGCTTCTTCGCCGGGAGCGGAGTCACCTAGTGCAG”, the binding signal was 3280 fluorescence intensity (a.u.).

“CACCGTCCAAACCGCTGAGGGACCTCATCTGCACTGGTTTCGGAGTCACCTAGTGCAG”: the binding signal is 21800 fluorescence intensity (a.u.).

On to “CCCACGTGATATTGACGTGGCACTTACCATGATAATTTGACGGAGTCACCTAGTGCAG”, for which the binding signal is 18100 fluorescence intensity (a.u.).

Regarding “CCAAATGAAGTTGAAGCTAAGCTATGACGTACCATACCAGCGGAGTCACCTAGTGCAG”, the binding signal was 5410 fluorescence intensity (a.u.).

For “AGAAGATTAACCGTTAAACCGTTTTATCAGCCATGGGATGCGGAGTCACCTAGTGCAG”, the binding signal is 16800 fluorescence intensity (a.u.).

Regarding “CACGCCAGCGTTGTCCCCGTCCCCGTCCACAGCCACGCCGCGGAGTCACCTAGTGCAG”, the binding signal was 3850 fluorescence intensity (a.u.).

Take “TTTATGGATAGAAGATGCACCGGCCAGGTCATGAAGATCACGGAGTCACCTAGTGCAG”: the binding signal is 4050 fluorescence intensity (a.u.).

Consider “TTGCAACCTCCACTGTTGACATGGCCTGCATCTTCCTGTCCGGAGTCACCTAGTGCAG”, for which the binding signal was 3340 fluorescence intensity (a.u.).

On to “GGAGGAGATCGAGCAGCCGCTGACGCTCGTCGTCTACCTCCGGAGTCACCTAGTGCAG”, for which the binding signal is 3370 fluorescence intensity (a.u.).

As for “CGTGTGGCGTGGACTTGTGGTGTATGTGTGGTGTGTGTTCCGGAGTCACCTAGTGCAG”, the binding signal is 4720 fluorescence intensity (a.u.).

As for “TCATGGGTGGCGCCATGGCCACGCGTCTCCTCCTCGCCACCGGAGTCACCTAGTGCAG”, the binding signal is 4550 fluorescence intensity (a.u.).

In the case of “GCCAGGCGCGGCATGTGCTGACGTGAGTTGTGGAGTCTACCGGAGTCACCTAGTGCAG”, the binding signal was 4210 fluorescence intensity (a.u.).

For “TCCGAGCTCGTAGCCTCGCTCTCCCGCCTATAAATTCACCCGGAGTCACCTAGTGCAG”, the binding signal was 4390 fluorescence intensity (a.u.).

For the sequence “CTCGGCCGGCTACGTTGGAGATGAGGGCTGGAGGCGGCTGCGGAGTCACCTAGTGCAG”, the binding signal is 3420 fluorescence intensity (a.u.).

With “CCGACAAAAGATGGTTTCTCCATCAGTGAAGACACAATGTCGGAGTCACCTAGTGCAG”, the binding signal was 19500 fluorescence intensity (a.u.).

Take “TTCGAGTTGGTCGCCGTGCGGCGATGGCGACCGCCAAGTGCGGAGTCACCTAGTGCAG”: the binding signal is 21300 fluorescence intensity (a.u.).

“ACTAGGATGTCACAACAGCCAAACCATCCATATACTGCCACGGAGTCACCTAGTGCAG”: the binding signal is 3170 fluorescence intensity (a.u.).

Consider “GATAGATACACCAACCAGGAGACATCACGACACGTCATCGCGGAGTCACCTAGTGCAG”, for which the binding signal is 29200 fluorescence intensity (a.u.).

Turning to “GGAGATTTGGATACAAAACGTGACGGCAGTGATATGGTTACGGAGTCACCTAGTGCAG”, the binding signal is 3440 fluorescence intensity (a.u.).

On to “GCGGAATTATTCTGGTGAGAGGTCTGATTGCATGTCAGCCCGGAGTCACCTAGTGCAG”, for which the binding signal is 3150 fluorescence intensity (a.u.).

Turning to “CATCACTGCCTCACCACCTTATATTAGTCACGTTTGACGGCGGAGTCACCTAGTGCAG”, the binding signal was 4380 fluorescence intensity (a.u.).

With “CCAACCGTGGGCCACCCAGGTCACATTGGTTCTGCTCTACCGGAGTCACCTAGTGCAG”, the binding signal was 3270 fluorescence intensity (a.u.).

As to “CCCATCACAAATCTCTATAAGATGGTATACTTAGTAACAACGGAGTCACCTAGTGCAG”, the binding signal was 3800 fluorescence intensity (a.u.).

As for “TTGGTGAGTTGACAGAAATTTGTATCATCTTAAAATGAGCCGGAGTCACCTAGTGCAG”, the binding signal is 3210 fluorescence intensity (a.u.).

“AATCTGCACCGGTTTTGATAGTTAAGGGACTAATTGTATCCGGAGTCACCTAGTGCAG”: the binding signal was 41700 fluorescence intensity (a.u.).

For the sequence “TGGACGAATCTTTTAAGCCTAATTGCGTCATGATTTGACACGGAGTCACCTAGTGCAG”, the binding signal is 5380 fluorescence intensity (a.u.).

“TATGTGAAAGTCAATGACGTCACATATTTTAAAACAAGGTCGGAGTCACCTAGTGCAG”: the binding signal is 6320 fluorescence intensity (a.u.).

As to “AACTGTCACTACTTCATCCAACCACTCCAAATCCAAAACCCGGAGTCACCTAGTGCAG”, the binding signal is 3420 fluorescence intensity (a.u.).

As to “ATCTTCTTCTTCATCGCTGTGCAGCTACACACTCTCACTGCGGAGTCACCTAGTGCAG”, the binding signal is 3180 fluorescence intensity (a.u.).

For “TGCCAGTAATTGTGACGTGACAAGATGCAGGCGTGGTGTGCGGAGTCACCTAGTGCAG”, the binding signal was 4770 fluorescence intensity (a.u.).

“CCGCGAGCCACCGCTACCGTCTTGACGCGTGCCCATTCTCCGGAGTCACCTAGTGCAG”: the binding signal is 3750 fluorescence intensity (a.u.).

Take “GGAAAGAGAGATGATGATGATGTGGCATATTGACGTGTGGCGGAGTCACCTAGTGCAG”: the binding signal was 8870 fluorescence intensity (a.u.).

“TCCCCGTCTTTTCCTTCCGCCTCACCAACCTCGTCTCGTCCGGAGTCACCTAGTGCAG”: the binding signal is 3330 fluorescence intensity (a.u.).

“GTACAATTTACTCAAATAACATTGACTGGCATTCTTGGTGCGGAGTCACCTAGTGCAG”: the binding signal was 3350 fluorescence intensity (a.u.).

With “GTCGTGCGCGCCACTACTACTGTATATCTGCTACCTCAACCGGAGTCACCTAGTGCAG”, the binding signal was 3620 fluorescence intensity (a.u.).

Turning to “TTTAATCACAGCGGACGGAGTCCAATATTGCAATTTTCTCCGGAGTCACCTAGTGCAG”, the binding signal is 3480 fluorescence intensity (a.u.).
